Consider one molecule from article PMC4550850.

The chains behind the UniProt entries cited, without tags or fusion partners.
UniProt Q8IVB5: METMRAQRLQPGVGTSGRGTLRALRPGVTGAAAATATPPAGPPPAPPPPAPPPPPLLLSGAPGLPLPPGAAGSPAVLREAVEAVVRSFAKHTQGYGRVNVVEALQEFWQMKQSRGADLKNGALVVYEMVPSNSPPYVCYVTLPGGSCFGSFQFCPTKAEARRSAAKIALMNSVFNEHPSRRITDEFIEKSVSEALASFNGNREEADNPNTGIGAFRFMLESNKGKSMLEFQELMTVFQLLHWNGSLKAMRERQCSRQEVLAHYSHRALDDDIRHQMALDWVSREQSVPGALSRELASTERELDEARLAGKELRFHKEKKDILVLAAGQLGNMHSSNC

This experiment deals with FLAG-LIX1L fusion protein (Limb expression 1-like) (human) (UniProt Q8IVB5). As to the kind of experiment: affinity purification with mass spectrometry; anti-FLAG immunoprecipitation from the nuclear fraction of HEK-293FLG-LIX1L cells, treated without RNase; differentially expressed bands identified by MALDI-TOF/TOF.

No constants are given. Whether binding was seen depends on the method and setting. In cells and extracts the contact can be indirect. Here binding means that the protein was enriched with, or labelled near, the bait; the list need not be complete.

B1: hnRNPL (protein, UniProt P14866 1-589)
chain: MSRRLLPRAEKRRRRLEQRQQPDEQRRRSGAMVKMAAAGGGGGGGRYYGGGSEGGRAPKRLKTDNAGDQHGGGGGGGGGAGAAGGGGGGENYDDPHKTPASPVVHIRGLIDGVVEADLVEALQEFGPISYVVVMPKKRQALVEFEDVLGACNAVNYAADNQIYIAGHPAFVNYSTSQKISRPGDSDDSRSVNSVLLFTILNPIYSITTDVLYTICNPCGPVQRIVIFRKNGVQAMVEFDSVQSAQRAKASLNGADIYSGCCTLKIEYAKPTRLNVFKNDQDTWDYTNPNLSGQGDPGSNPNKRQRQPPLLGDHPAEYGGPHGGYHSHYHDEGYGPPPPHYEGRRMGPPVGGHRRGPSRYGPQYGHPPPPPPPPEYGPHADSPVLMVYGLDQSKMNCDRVFNVFCLYGNVEKVKFMKSKPGAAMVEMADGYAVDRAITHLNNNFMFGQKLNVCVSKQPAIMPGQSYGLEDGSCSYKDFSESRNNRFSTPEQAAKNRIQHPSNVLHFFNAPLEVTEENFFEICDELGVKRPSSVKVFSGKSERSSSGLLEWESKSDALETLGFLNHYQMKNPNGPYPYTLKLCFSTAQHAS
On to B1, for which the binding entry is on record as “binds”.
